Assay results taken from the supplement of paper PMC10849652.
Some of the results follow.

By UniProt entry, the sequences of proteins in these tests, tags left out. Where a name states a change or a piece, a line headed by the entry shows the natural chain unless it says otherwise.
UniProt Q9H173: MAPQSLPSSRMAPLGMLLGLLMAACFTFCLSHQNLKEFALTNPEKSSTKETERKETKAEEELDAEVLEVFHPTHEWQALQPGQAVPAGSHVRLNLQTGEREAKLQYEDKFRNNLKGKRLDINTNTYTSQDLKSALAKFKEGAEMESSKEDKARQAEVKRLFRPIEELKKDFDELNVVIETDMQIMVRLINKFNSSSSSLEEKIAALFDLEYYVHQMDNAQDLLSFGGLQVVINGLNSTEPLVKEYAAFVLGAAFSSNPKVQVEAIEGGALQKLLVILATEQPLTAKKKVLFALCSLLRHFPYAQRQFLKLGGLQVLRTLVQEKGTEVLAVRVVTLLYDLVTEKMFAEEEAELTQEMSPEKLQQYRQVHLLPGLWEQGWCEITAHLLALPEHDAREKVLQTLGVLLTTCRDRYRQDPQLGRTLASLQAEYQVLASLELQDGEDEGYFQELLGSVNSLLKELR
UniProt A0MZ66, whole entry, looked up: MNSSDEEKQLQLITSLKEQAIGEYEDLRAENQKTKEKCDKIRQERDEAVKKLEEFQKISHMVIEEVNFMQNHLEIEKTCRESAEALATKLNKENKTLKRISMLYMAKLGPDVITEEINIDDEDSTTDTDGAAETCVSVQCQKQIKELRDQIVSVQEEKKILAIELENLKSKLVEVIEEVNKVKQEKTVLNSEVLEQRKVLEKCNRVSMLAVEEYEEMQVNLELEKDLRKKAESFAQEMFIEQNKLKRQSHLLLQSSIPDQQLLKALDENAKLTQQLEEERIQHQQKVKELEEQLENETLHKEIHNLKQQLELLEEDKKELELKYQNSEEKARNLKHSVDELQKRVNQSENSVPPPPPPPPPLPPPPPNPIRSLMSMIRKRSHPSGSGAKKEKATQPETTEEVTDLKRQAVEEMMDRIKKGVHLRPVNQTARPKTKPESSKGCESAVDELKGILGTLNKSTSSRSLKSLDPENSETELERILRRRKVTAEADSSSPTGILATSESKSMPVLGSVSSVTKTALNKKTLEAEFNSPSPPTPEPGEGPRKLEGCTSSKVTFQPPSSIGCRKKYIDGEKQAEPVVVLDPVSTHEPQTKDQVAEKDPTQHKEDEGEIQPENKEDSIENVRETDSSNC
UniProt Q9Y371: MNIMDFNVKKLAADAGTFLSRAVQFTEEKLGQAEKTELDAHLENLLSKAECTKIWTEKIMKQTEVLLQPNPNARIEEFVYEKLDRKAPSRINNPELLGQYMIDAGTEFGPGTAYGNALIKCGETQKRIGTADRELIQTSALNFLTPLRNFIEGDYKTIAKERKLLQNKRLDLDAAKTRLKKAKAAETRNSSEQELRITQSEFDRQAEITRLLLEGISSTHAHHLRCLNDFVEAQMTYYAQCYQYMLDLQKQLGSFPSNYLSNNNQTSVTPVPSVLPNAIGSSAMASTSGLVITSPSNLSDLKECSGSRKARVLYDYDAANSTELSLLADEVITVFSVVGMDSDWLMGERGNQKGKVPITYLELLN
UniProt Q9NR46: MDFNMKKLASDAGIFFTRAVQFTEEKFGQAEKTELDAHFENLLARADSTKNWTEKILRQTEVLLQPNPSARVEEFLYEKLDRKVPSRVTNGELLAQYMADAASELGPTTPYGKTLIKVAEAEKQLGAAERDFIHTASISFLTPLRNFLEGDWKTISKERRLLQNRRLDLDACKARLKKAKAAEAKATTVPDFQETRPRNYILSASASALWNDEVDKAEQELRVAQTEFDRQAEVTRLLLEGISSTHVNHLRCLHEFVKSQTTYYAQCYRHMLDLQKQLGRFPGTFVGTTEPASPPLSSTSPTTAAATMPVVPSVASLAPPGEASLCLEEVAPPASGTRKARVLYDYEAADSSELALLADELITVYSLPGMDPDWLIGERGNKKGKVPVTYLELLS
UniProt Q9GZR1: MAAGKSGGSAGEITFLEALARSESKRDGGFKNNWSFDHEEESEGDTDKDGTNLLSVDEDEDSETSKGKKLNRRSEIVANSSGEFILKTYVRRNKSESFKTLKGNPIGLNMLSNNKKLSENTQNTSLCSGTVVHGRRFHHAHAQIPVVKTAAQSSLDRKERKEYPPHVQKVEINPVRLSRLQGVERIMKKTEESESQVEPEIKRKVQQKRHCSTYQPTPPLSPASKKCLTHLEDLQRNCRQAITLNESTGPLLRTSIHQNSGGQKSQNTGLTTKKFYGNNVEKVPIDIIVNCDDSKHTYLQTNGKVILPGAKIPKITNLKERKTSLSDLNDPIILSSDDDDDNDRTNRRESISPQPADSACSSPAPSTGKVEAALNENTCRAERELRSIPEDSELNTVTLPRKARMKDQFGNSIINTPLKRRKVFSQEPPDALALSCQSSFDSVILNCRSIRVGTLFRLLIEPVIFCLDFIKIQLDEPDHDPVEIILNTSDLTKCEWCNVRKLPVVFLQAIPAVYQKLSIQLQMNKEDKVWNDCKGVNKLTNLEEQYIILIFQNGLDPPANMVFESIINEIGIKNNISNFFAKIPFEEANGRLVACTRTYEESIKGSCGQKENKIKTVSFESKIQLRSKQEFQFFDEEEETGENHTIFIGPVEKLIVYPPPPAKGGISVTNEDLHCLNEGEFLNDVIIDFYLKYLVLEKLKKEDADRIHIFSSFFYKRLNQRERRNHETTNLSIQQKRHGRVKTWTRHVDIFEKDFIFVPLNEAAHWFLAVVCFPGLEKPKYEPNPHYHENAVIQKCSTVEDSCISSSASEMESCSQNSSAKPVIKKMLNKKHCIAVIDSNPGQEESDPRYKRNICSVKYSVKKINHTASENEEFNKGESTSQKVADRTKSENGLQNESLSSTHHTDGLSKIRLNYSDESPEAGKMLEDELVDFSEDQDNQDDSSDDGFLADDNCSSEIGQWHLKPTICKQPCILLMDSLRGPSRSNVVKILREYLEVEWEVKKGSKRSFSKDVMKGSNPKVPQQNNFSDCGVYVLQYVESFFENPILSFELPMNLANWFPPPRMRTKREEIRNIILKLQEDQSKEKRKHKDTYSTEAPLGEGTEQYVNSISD
UniProt P63208, whole entry, looked up: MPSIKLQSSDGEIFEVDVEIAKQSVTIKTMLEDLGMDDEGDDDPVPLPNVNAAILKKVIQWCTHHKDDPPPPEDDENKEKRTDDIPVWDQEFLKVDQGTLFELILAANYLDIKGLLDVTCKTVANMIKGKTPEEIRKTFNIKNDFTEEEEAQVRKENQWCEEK
UniProt O95470: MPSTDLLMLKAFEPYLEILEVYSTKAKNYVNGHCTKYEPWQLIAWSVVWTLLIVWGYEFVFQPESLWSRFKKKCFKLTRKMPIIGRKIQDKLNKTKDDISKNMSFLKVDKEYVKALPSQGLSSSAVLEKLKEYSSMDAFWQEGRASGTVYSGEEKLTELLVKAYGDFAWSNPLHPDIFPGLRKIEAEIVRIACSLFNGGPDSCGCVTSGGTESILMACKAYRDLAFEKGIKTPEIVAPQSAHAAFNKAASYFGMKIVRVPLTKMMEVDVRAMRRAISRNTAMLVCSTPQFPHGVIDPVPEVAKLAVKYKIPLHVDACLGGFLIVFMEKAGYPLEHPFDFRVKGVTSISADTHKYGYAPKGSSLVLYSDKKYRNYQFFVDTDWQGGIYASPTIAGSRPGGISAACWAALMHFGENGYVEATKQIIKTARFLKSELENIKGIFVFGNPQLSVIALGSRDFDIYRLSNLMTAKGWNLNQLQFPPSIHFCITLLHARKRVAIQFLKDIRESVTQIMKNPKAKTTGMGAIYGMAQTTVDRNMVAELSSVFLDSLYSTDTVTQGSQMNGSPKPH
UniProt P36955: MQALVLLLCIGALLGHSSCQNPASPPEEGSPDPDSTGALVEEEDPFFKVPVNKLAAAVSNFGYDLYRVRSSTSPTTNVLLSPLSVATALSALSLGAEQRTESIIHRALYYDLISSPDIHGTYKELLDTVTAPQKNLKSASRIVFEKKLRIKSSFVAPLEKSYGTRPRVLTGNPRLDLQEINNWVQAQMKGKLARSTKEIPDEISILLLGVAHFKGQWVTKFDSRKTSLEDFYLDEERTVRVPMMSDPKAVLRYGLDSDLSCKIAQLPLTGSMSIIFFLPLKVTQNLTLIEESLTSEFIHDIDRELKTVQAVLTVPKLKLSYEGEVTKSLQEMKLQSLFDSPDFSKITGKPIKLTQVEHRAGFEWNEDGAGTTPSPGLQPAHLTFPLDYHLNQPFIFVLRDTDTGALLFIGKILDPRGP
UniProt Q96EQ0: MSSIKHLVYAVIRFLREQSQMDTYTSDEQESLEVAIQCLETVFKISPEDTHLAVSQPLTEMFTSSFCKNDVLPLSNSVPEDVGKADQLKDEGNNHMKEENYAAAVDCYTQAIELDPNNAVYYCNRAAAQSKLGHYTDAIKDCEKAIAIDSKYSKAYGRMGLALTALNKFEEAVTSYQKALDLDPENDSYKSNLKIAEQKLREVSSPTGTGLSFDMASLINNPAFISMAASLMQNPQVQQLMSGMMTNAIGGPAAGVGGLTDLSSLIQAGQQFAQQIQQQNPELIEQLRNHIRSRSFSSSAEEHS
UniProt Q99961: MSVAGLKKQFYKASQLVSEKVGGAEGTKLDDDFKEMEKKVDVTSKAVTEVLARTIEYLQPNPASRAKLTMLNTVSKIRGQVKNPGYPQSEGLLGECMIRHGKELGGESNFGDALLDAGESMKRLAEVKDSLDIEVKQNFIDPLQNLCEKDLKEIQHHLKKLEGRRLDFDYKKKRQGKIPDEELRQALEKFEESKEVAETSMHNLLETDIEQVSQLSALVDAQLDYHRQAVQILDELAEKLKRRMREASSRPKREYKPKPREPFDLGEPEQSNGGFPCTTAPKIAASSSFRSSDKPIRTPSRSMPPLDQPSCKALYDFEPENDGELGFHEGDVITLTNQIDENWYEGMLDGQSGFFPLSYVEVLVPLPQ
UniProt Q8NBJ9: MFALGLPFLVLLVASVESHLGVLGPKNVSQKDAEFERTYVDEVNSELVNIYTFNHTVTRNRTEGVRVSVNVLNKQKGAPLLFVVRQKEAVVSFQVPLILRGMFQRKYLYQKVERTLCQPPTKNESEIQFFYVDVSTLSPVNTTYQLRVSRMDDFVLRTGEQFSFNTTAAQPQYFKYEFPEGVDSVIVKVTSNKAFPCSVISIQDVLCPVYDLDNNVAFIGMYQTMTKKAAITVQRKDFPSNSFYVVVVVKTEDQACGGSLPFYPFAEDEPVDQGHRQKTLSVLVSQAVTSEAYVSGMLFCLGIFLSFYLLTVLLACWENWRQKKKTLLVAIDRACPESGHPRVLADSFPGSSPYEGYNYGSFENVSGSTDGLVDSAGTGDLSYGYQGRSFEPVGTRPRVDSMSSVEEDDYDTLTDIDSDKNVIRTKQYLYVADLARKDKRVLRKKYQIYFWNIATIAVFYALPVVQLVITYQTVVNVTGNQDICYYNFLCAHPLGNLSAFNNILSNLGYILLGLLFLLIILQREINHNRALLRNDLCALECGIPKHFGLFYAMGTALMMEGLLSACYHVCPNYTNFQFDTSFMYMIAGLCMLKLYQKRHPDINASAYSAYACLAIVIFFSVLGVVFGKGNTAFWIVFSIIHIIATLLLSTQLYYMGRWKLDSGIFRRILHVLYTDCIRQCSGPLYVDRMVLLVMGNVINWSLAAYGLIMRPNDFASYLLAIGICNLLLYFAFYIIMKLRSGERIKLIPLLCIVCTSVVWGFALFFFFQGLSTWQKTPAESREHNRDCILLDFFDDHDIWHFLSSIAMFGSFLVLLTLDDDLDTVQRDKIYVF
UniProt Q9Y3B4: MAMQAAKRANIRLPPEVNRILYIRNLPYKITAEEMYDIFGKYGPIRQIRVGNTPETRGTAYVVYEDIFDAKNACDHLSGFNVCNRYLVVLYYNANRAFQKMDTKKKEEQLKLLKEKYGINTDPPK
UniProt Q9BRV8: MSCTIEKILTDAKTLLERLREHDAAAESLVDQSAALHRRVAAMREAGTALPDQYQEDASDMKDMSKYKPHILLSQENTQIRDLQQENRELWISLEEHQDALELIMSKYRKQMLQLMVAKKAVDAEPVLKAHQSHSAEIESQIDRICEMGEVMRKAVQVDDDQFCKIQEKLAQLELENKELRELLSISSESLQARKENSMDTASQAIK
UniProt Q96EE3: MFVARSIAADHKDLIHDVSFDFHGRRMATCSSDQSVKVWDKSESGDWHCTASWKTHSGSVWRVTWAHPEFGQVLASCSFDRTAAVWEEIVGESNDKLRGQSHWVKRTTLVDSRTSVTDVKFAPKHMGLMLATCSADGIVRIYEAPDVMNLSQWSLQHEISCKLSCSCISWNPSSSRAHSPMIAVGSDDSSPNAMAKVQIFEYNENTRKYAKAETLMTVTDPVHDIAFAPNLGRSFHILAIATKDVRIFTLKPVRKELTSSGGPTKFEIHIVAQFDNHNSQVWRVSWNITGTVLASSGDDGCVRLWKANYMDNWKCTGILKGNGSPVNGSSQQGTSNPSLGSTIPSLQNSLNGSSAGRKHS

Legend:
Test in all cases: log2 fold change, soluble protein after heating vs DMSO (PISA); higher = thermal stabilisation; K562 cells, 10 uM, 30 min; active = over 0.2 and 3.5 SD of the protein, either way, in both replicates (recomputed)
[1] = compound: CC1=C(C=C(C=C1)NC(=O)C2=CC(=CC=C2)C(C)(C)C#N)NC3=CC4=C(C=C3)N=CN(C4=O)C
How it was run: (§1)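 K562 cells at 2×10^6 cells/mL were treated with 10 μM compound for 30 min. Aliquots were heated for 3 min across 48°C-58°C, pooled, and extracted in PBS with 0.5% NP-40 at 4°C; soluble protein was the supernatant after 21,000xg for 90 min. Soluble protein was quantified by TMTpro 16plex LC-MS/MS with channel sums equalised, and reported as log2 fold change in thermal stability against DMSO controls, with values from duplicates.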

[2] = compound: CC1=C(C=C(C=C1)NC(=O)C2=CC(=CC=C2)N(C)C)NC(=O)C3=CC=C(C=C3)O
How it was run: as §1

[3] = compound: CC1=CC=C(C=C1)SC2=C3C=C(SC3=CN=C2)C(=O)N
How it was run: as §1

[4] = compound: CC1=NC(=CC=C1)C2=C(N=C(N2)C(C)(C)C)C3=CC4=NC=CN=C4C=C3
How it was run: as §1

Nexturastat A = compound: CCCCN(Cc1ccc(C(=O)NO)cc1)C(=O)Nc1ccccc1 [Nexturastat A]
How it was run: as §1

vemurafenib = compound: CCCS(=O)(=O)Nc1ccc(F)c(C(=O)c2c[nH]c3ncc(-c4ccc(Cl)cc4)cc23)c1F [vemurafenib]
How it was run: as §1

[5] = compound: CCCS(=O)(=O)Nc1ccc(F)c(C(=O)c2c[nH]c3ncc(Cl)cc23)c1F
How it was run: as §1

[6] = compound: CCCc1cc(C)[nH]c(=O)c1CNC(=O)c1cc(-c2ccnc(N3CCN(C)CC3)c2)cc2c1cnn2C(C)C
How it was run: as §1

givinostat = compound: CCN(CC)Cc1ccc2cc(COC(=O)Nc3ccc(C(=O)NO)cc3)ccc2c1 [givinostat]
How it was run: as §1

barasertib = compound: CCN(CCCOc1ccc2c(Nc3cc(CC(=O)Nc4cccc(F)c4)[nH]n3)ncnc2c1)CCOP(=O)(O)O [barasertib]
How it was run: as §1

[7] = compound: CC[C@@H]1C(=O)N(C)c2cnc(Nc3ccc(C(=O)NC4CCN(C)CC4)cc3OC)nc2N1C1CCCC1
How it was run: as §1

volasertib = compound: CC[C@@H]1C(=O)N(C)c2cnc(Nc3ccc(C(=O)N[C@H]4CC[C@H](N5CCN(CC6CC6)CC5)CC4)cc3OC)nc2N1C(C)C [volasertib]
How it was run: as §1

[8] = compound: CC[C@H](C)N1C=C(C2=C(C=C(C=C21)C3=CN=C(C=C3)N4CCNCC4)C(=O)NCC5=C(C=C(NC5=O)C)C)C
How it was run: as §1

epoxomicin = compound: CC[C@H](C)[C@@H](C(=O)N[C@@H]([C@@H](C)O)C(=O)N[C@@H](CC(C)C)C(=O)[C@]1(CO1)C)NC(=O)[C@H]([C@@H](C)CC)N(C)C(=O)C [epoxomicin]
How it was run: as §1

[9] = compound: CCn1c(C(=O)N(C2CC2)C2CC2)cc2c3c(ncn3C)c(Nc3cc(C)n(C)n3)nc21
How it was run: as §1

[10] = compound: CCn1cc(-c2ccnc3[nH]c(-c4cccc(CN(C)C)c4)cc23)c(-c2ccc(NC(=O)N(C)C)cc2)n1
How it was run: as §1

[11] = compound: CN(C)CC(=O)Nc1ccc2[nH]c(=O)c3ccccc3c2c1
How it was run: as §1

rosiglitazone = compound: CN(CCOC1=CC=C(C=C1)C[C@H]2C(=O)NC(=O)S2)C3=CC=CC=N3 (racemic) [rosiglitazone]
How it was run: as §1

[12] = compound: CN1C2=C(C3=C1C(=O)N(N=C3)CC4=CC(=CC=C4)N)SC(=C2)S(=O)C
How it was run: as §1

[13] = compound: CN1CCC(CNc2ccc3ncc(-c4cccc(OC(F)(F)F)c4)n3n2)CC1
How it was run: as §1

Target | log2 fold change [1] | log2 fold change [2] | log2 fold change [3] | log2 fold change [4] | log2 fold change (Nexturastat A) | log2 fold change (vemurafenib) | log2 fold change [5] | log2 fold change [6] | log2 fold change (givinostat) | log2 fold change (barasertib) | log2 fold change [7] | log2 fold change (volasertib) | log2 fold change [8] | log2 fold change (epoxomicin) | log2 fold change [9] | log2 fold change [10] | log2 fold change [11] | log2 fold change (rosiglitazone) | log2 fold change [12] | log2 fold change [13]
SIL1 (UniProt Q9H173) | inactive: -0.039 | inactive: -0.041 | inactive: -0.062 | inactive: -0.015 | inactive: 0.034 | inactive: -0.009 | inactive: -0.085 | inactive: 0.019 | inactive: 0.003 | inactive: -0.028 | inactive: 0.01 | inactive: -0.046 | inactive: -0.035 | inactive: 0.096 | inactive: 0.01 | inactive: 0.035 | inactive: -0.039 | inactive: -0.047 | inactive: 0.055 | inactive: 0.106
SHTN1 isoform 3 (UniProt A0MZ66) | inactive: -0.054 | inactive: -0.02 | inactive: -0.005 | inactive: -0.051 | inactive: 0.048 | inactive: -0.043 | inactive: 0.028 | inactive: 0.03 | inactive: 0.074 | inactive: 0.058 | inactive: 0.062 | inactive: -0.133 | inactive: -0.01 | inactive: -0.025 | inactive: -0.076 | inactive: 0.009 | inactive: -0.015 | inactive: 0.092 | inactive: 0.025 | inactive: -0.106
SH3GLB1 isoform 2 (UniProt Q9Y371) | inactive: 0.037 | inactive: -0.019 | inactive: 0.006 | inactive: -0.022 | inactive: 0.09 | inactive: -0.042 | inactive: 0.029 | inactive: 0.032 | inactive: 0.067 | inactive: 0.06 | inactive: -0.181 | inactive: -0.277 | inactive: 0.141 | inactive: -0.021 | inactive: -0.056 | inactive: -0.065 | inactive: -0.045 | inactive: 0.041 | inactive: 0.082 | inactive: -0.148
SH3GLB2 (UniProt Q9NR46) | inactive: 0.047 | inactive: -0.052 | inactive: 0.025 | inactive: 0.033 | inactive: -0.064 | inactive: 0.058 | inactive: 0.058 | inactive: 0.021 | inactive: 0.049 | inactive: 0.051 | inactive: -0.148 | active: -0.378 | inactive: 0.072 | inactive: 0.041 | – | inactive: -0.101 | inactive: 0.033 | – | inactive: 0.016 | inactive: -0.254
SENP6 (UniProt Q9GZR1) | inactive: -0.048 | inactive: -0.006 | inactive: 0.037 | inactive: -0.007 | inactive: 0.247 | inactive: -0.028 | inactive: -0.01 | inactive: 0.077 | inactive: 0.057 | inactive: -0.026 | inactive: -0.086 | inactive: -0.07 | inactive: -0.044 | inactive: -0.039 | – | inactive: -0.022 | inactive: -0.017 | – | inactive: -0.014 | inactive: -0.038
SKP1 (UniProt P63208) | inactive: 0.095 | inactive: 0.048 | inactive: 0.094 | inactive: 0.017 | inactive: -0.052 | inactive: -0.036 | inactive: 0.008 | inactive: -0.032 | inactive: -0.05 | inactive: -0.021 | inactive: -0.012 | inactive: -0.02 | inactive: -0.027 | inactive: 0.034 | – | inactive: -0.035 | inactive: -0.019 | – | inactive: -0.126 | inactive: 0.244
SGPL1 (UniProt O95470) | inactive: -0.036 | inactive: -0.056 | inactive: 0.014 | inactive: -0.054 | inactive: 0.031 | inactive: 0.033 | inactive: -0.036 | inactive: 0.074 | inactive: -0.035 | inactive: 0.051 | inactive: 0 | inactive: -0.04 | inactive: -0.002 | inactive: -0.066 | – | inactive: 0.009 | inactive: -0.023 | – | inactive: 0.047 | inactive: 0.189
SERPINF1 (UniProt P36955) | inactive: -0.038 | inactive: 0.125 | inactive: -0.015 | inactive: 0.018 | inactive: -0.053 | inactive: -0.033 | inactive: -0.009 | inactive: 0.003 | inactive: -0.025 | inactive: -0.055 | inactive: -0.045 | inactive: 0.052 | inactive: -0.184 | inactive: -0.06 | inactive: 0.118 | inactive: 0.032 | inactive: -0.134 | inactive: 0.044 | inactive: 0.026 | inactive: 0.21
SGTB (UniProt Q96EQ0) | inactive: 0.003 | inactive: 0.013 | inactive: -0.051 | inactive: 0.005 | inactive: -0.019 | inactive: 0.017 | inactive: -0.023 | inactive: 0.047 | inactive: 0.023 | inactive: 0.005 | inactive: -0.002 | inactive: -0.065 | inactive: 0.008 | inactive: 0.023 | inactive: -0.016 | inactive: -0.055 | inactive: -0.003 | inactive: -0.024 | – | inactive: 0.102
SH3GL1 (UniProt Q99961) | inactive: 0.022 | inactive: -0.077 | inactive: 0.06 | inactive: 0.021 | inactive: 0.141 | inactive: 0.1 | inactive: 0.1 | inactive: 0.037 | inactive: 0.024 | inactive: 0.084 | inactive: -0.137 | active: -0.459 | inactive: 0.082 | inactive: 0.008 | – | inactive: -0.028 | inactive: 0.091 | – | inactive: -0.006 | inactive: -0.196
SERBP1 (UniProt Q8NC51) | inactive: -0.003 | inactive: 0.026 | inactive: -0.09 | inactive: -0.075 | inactive: 0.111 | inactive: -0.065 | inactive: -0.127 | inactive: 0.036 | inactive: -0.037 | inactive: -0.074 | inactive: 0.091 | inactive: 0.163 | inactive: -0.04 | inactive: -0.144 | inactive: 0 | inactive: 0.126 | inactive: -0.071 | inactive: -0.088 | inactive: 0.096 | inactive: 0.127
SIDT2 isoform 2 (UniProt Q8NBJ9) | inactive: -0.021 | inactive: 0.019 | inactive: -0.025 | active: -0.367 | inactive: 0.042 | inactive: 0.019 | inactive: -0.033 | inactive: 0.017 | inactive: 0.038 | inactive: -0.148 | inactive: -0.035 | inactive: 0.055 | inactive: -0.026 | inactive: 0.002 | – | inactive: 0.069 | inactive: -0.041 | – | inactive: 0.024 | inactive: -0.02
SF3B6 (UniProt Q9Y3B4) | inactive: -0.011 | inactive: -0.001 | inactive: -0.029 | inactive: 0.019 | inactive: -0.001 | inactive: 0.02 | inactive: -0.007 | inactive: 0.049 | inactive: 0.046 | inactive: 0.018 | inactive: 0.1 | inactive: -0.12 | inactive: 0.036 | inactive: -0.259 | inactive: -0.027 | inactive: 0.051 | inactive: 0.016 | inactive: 0.063 | inactive: 0.036 | inactive: -0.084
SEC62 (UniProt Q99442) | inactive: -0.024 | inactive: -0.013 | inactive: -0.021 | inactive: 0.028 | inactive: -0.021 | inactive: -0.021 | inactive: -0.021 | inactive: 0.108 | inactive: -0.057 | inactive: 0.059 | inactive: -0.029 | inactive: -0.018 | inactive: -0.022 | inactive: -0.009 | inactive: 0.018 | inactive: -0.046 | inactive: -0.007 | inactive: -0.048 | inactive: -0.047 | inactive: 0.095
SIKE1 (UniProt Q9BRV8) | inactive: 0.031 | inactive: 0.005 | inactive: 0.026 | inactive: -0.041 | inactive: 0.169 | inactive: 0.034 | inactive: -0.023 | inactive: -0.164 | inactive: -0.009 | inactive: 0.113 | – | inactive: -0.123 | inactive: 0.174 | inactive: 0.055 | inactive: 0.002 | inactive: -0.054 | inactive: -0.004 | inactive: -0.026 | inactive: 0.02 | inactive: -0.006
SEH1L isoform 1 (UniProt Q96EE3) | inactive: -0.004 | inactive: 0.015 | inactive: 0.005 | inactive: -0.019 | inactive: 0.011 | inactive: 0.005 | inactive: 0.048 | inactive: -0.033 | inactive: 0.005 | inactive: 0.008 | inactive: -0.044 | active: 0.466 | inactive: -0.019 | inactive: -0.057 | – | inactive: -0.041 | inactive: -0.013 | – | inactive: -0.054 | inactive: 0.027
SERPINF2 (UniProt P08697) | inactive: -0.079 | inactive: 0.278 | inactive: 0.188 | inactive: 0.137 | inactive: -0.057 | inactive: 0.047 | inactive: -0.06 | inactive: -0.414 | inactive: -0.154 | inactive: -0.204 | inactive: -0.017 | inactive: -0.01 | inactive: -0.163 | inactive: -0.378 | inactive: -0.213 | inactive: 0.001 | inactive: -0.03 | inactive: -0.173 | inactive: 0.16 | inactive: -0.097

2 consecutive records already listed, quoted:
Target | log2 fold change [1] | log2 fold change [2] | log2 fold change [3] | log2 fold change [4] | log2 fold change (Nexturastat A) | log2 fold change (vemurafenib) | log2 fold change [5] | log2 fold change [6] | log2 fold change (givinostat) | log2 fold change (barasertib) | log2 fold change [7] | log2 fold change (volasertib) | log2 fold change [8] | log2 fold change (epoxomicin) | log2 fold change [9] | log2 fold change [10] | log2 fold change [11] | log2 fold change (rosiglitazone) | log2 fold change [12] | log2 fold change [13]
SH3GL1 (UniProt Q99961) | inactive: 0.022 | inactive: -0.077 | inactive: 0.06 | inactive: 0.021 | inactive: 0.141 | inactive: 0.1 | inactive: 0.1 | inactive: 0.037 | inactive: 0.024 | inactive: 0.084 | inactive: -0.137 | active: -0.459 | inactive: 0.082 | inactive: 0.008 | – | inactive: -0.028 | inactive: 0.091 | – | inactive: -0.006 | inactive: -0.196
SERBP1 (UniProt Q8NC51) | inactive: -0.003 | inactive: 0.026 | inactive: -0.09 | inactive: -0.075 | inactive: 0.111 | inactive: -0.065 | inactive: -0.127 | inactive: 0.036 | inactive: -0.037 | inactive: -0.074 | inactive: 0.091 | inactive: 0.163 | inactive: -0.04 | inactive: -0.144 | inactive: 0 | inactive: 0.126 | inactive: -0.071 | inactive: -0.088 | inactive: 0.096 | inactive: 0.127
